## Primary screen of a compound library

Amino acid sequences for entries named in this document (tags omitted).
UniProt E9BF75, entry or part of it: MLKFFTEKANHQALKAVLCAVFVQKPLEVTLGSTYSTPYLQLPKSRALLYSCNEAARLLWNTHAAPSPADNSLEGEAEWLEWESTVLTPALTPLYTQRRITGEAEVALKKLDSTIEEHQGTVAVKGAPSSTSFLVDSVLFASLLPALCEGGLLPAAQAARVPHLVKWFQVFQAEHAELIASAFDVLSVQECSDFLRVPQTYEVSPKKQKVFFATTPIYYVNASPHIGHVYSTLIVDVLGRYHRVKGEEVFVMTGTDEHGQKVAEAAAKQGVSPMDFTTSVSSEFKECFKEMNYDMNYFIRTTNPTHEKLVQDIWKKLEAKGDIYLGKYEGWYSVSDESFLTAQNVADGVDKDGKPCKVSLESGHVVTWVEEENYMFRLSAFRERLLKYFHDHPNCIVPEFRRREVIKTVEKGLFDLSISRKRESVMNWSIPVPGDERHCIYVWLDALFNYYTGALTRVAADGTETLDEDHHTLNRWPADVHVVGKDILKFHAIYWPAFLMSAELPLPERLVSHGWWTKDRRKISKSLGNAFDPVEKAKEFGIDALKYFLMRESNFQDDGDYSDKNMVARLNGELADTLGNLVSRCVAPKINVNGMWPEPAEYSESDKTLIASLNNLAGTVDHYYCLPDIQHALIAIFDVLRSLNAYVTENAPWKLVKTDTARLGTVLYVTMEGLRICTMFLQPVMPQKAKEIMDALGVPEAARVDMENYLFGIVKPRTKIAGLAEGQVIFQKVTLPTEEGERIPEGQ

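Primary screen of methionyl-tRNA synthetase; the read-out is not stated. Target: Methionyl-tRNA synthetase (putative), Leishmania donovani (UniProt E9BF75). The test concentration is not given. Values are per cent inhibition. Size under these conditions: about 68,000 compounds, about 24 of them at 50% or above in at least one test.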

All values are in %.
The record does not define 0% and 100%; most values in the screen are far below 50% and negative numbers occur (in some assays of this library far below -100).
Compounds were drawn at random from those tested, without regard to their results.

With O=C(c1cc(COc2ccc3c(c2)OCO3)[nH]n1)N1CCCC1 the screen gave 12.5%. CC(C)(C)N1CC(C(=O)NCc2cn3cccnc3n2)CC1=O (stereo unspecified) read 11.06%. With Cc1cnn(C2CN(CC(=O)N(C)Cc3ccc(C)o3)C2)c1 the screen gave -1.441%. Cc1cc(C2CCCN(Cc3noc(Cc4ccccc4)n3)C2)n[nH]1 (stereo unspecified) read 8.672%. With CCN(C)S(=O)(=O)NCC1CCN(Cc2ccccc2F)C1 (stereo unspecified) the screen gave 8.657%. With Cc1ccc(S(=O)(=O)NC(=O)CCC(F)(F)F)cc1N(C)C the screen gave 12.11%.

Cc1cccc(N2CCC3(CCCN3Cc3c(C)nn(C)c3C)CC2)n1 read 14.89%. COc1c(CNC2CCN(c3ccccn3)CC2)c(C(C)C)nn1C read 10.89%. Result for Cc1cc(CSCc2ccccn2)on1 was 5.974%. Result for O=c1nc(SCc2ccncc2)c2c(n1CCO)CCC2 was 8.042%. For CN1CCN(C(=O)CCCc2ccccc2)CC(O)(Cn2cccn2)C1 (stereo unspecified) the result was 12.73%. Cc1nc(CN(C)S(=O)(=O)c2ccc(F)cc2Br)no1 read 11.15%.

CCc1c(C)nc2n(c1=O)CC(C(=O)NCc1cccs1)CS2 (stereo unspecified) gave 9.934%. For O=C(CCNCc1cccc(O)c1)N1CCc2sccc2C1 the result was 3.727%. With COCCCC1(CO)CCCN(CCS(C)(=O)=O)C1 (stereo unspecified) the screen gave 10.34%. Result for O=C(NCc1ccccn1)NCc1ccc(Cl)s1 was 16.39%. Result for Cc1cccc(-c2ccc3nc(C4CCN(CC5CC5)CC4)nn3c2)c1 was 18.5%. O=C(N1CCOCC1)N1CCCC(c2ncncc2-c2ccncc2)C1 (stereo unspecified) read 13.59%.

Result for Cc1cc(C)n(CC(=O)N2C[C@@H]3CC[C@H](C2)N(CC2CCC2)C3)c(=O)n1 was 25.48%. For CS(=O)(=O)NC[C@]12COC[C@H]1CN(CCc1ccccc1)C2 the result was 13.14%. With Cc1cnn(CC2CCCN2C(=O)CCc2ccc3c(c2)OCO3)c1 (stereo unspecified) the screen gave 11.05%. With CN(C(=O)CN1CCc2nn(C)c(=O)cc2C1)c1nccs1 the screen gave 19.16%. CCOc1cccc(COC(=O)c2ccc(F)cn2)n1 read 16.55%. For Cc1cc(O)cc(C2CCCN2C(=O)c2ccn(C)n2)n1 (stereo unspecified) the result was -1.596%.

CCc1noc(CS(=O)(=O)CC(=O)N2c3ccccc3CC2C)n1 (stereo unspecified) gave 3.125%. Result for c1ccc(CCN2CC(n3cccn3)C2)nc1 was 20.56%. With Cc1nc(C)n(CC2CCCCN2CC(=O)NC(C2CC2)C2CC2)n1 (stereo unspecified) the screen gave 11.45%. c1cncc(OC[C@@]23CCC[C@@H]2CN(CC2CCOCC2)C3)c1 gave 13.74%.

Repeated from the top, 2 entries:

{"smiles": "O=C(c1cc(COc2ccc3c(c2)OCO3)[nH]n1)N1CCCC1", "Inhibition": 12.5}
{"smiles": "CC(C)(C)N1CC(C(=O)NCc2cn3cccnc3n2)CC1=O", "stereo": "stereo unspecified", "Inhibition": 11.06}

Measurements from “University of Dundee, Small-Polar-MMV Screening Library” (2021), ChEMBL document CHEMBL3988442.